Measured values taken from the supplement of paper PMC10849652.
Some of the results follow. Residues, ends and D or L forms follow the SMILES beside them. *: point of attachment. Cbz = O=C(OCc1ccccc1)*

The chains behind the UniProt entries cited, without tags or fusion partners. Where a name states a change or a piece, a line headed by the entry shows the natural chain unless it says otherwise.
UniProt P27816: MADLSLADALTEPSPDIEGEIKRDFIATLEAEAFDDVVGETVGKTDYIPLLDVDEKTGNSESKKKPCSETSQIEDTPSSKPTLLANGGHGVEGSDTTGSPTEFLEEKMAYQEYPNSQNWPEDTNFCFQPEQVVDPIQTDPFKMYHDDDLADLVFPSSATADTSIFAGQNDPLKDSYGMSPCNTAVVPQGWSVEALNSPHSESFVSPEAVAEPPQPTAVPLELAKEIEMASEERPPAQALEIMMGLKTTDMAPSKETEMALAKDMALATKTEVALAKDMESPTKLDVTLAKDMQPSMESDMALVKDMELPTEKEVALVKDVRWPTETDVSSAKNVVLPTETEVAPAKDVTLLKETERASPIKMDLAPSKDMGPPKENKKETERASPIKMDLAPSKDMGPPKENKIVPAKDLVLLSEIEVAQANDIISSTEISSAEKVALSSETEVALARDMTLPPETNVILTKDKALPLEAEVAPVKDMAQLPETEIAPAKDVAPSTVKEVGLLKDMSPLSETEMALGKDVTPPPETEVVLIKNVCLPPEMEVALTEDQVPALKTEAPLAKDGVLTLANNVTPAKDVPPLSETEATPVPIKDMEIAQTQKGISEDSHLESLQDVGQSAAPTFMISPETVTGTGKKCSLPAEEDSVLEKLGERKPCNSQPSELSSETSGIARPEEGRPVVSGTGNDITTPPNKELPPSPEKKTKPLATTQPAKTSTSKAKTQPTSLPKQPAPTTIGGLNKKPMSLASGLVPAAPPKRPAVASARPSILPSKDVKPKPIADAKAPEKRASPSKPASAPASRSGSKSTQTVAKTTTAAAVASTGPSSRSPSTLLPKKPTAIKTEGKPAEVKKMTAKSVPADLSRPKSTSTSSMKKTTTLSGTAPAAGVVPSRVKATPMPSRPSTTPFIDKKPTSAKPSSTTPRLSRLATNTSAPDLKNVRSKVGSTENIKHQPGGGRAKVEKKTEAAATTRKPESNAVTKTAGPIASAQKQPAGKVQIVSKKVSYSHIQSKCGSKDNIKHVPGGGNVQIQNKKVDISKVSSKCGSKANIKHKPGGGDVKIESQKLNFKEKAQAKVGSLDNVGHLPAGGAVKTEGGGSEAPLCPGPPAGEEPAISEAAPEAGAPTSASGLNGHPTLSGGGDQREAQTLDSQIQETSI
UniProt Q32MZ4: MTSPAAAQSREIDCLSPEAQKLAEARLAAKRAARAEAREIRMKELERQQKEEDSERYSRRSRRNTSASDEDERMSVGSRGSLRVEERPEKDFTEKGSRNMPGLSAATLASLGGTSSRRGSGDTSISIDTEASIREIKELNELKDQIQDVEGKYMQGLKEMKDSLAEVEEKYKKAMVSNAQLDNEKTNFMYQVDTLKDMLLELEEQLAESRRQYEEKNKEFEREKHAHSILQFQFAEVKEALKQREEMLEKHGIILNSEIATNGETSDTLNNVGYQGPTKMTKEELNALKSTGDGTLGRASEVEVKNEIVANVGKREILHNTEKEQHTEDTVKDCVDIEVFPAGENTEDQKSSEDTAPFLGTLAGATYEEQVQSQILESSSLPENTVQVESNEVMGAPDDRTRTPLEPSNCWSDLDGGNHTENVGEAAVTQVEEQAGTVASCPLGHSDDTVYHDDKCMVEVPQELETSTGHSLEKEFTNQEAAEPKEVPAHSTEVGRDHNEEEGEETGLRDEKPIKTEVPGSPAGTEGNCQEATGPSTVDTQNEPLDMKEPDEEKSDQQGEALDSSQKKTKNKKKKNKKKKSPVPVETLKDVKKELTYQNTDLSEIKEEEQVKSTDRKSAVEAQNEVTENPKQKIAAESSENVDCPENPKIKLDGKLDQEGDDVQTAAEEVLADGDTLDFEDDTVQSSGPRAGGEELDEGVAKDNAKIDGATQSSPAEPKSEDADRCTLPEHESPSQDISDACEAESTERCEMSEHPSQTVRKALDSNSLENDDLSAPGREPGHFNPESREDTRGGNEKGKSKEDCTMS
UniProt P07948: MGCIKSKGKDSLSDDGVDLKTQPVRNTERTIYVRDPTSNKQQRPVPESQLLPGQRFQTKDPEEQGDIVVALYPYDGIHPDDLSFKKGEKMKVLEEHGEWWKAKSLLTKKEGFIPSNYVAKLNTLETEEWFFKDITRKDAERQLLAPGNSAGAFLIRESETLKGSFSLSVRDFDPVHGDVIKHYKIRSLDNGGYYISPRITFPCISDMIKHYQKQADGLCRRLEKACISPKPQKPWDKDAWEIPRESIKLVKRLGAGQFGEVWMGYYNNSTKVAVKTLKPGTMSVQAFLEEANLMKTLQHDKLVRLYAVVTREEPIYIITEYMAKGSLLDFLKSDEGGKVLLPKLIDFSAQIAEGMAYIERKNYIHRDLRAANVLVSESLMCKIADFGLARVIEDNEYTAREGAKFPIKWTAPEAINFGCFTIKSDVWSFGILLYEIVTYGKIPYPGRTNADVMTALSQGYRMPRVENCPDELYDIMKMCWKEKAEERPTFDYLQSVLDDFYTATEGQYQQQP
UniProt O15525: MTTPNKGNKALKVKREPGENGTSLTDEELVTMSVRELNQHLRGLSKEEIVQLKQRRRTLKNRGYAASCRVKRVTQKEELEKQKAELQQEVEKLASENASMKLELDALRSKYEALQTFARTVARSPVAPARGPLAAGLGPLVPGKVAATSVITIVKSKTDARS
UniProt Q8N2S1: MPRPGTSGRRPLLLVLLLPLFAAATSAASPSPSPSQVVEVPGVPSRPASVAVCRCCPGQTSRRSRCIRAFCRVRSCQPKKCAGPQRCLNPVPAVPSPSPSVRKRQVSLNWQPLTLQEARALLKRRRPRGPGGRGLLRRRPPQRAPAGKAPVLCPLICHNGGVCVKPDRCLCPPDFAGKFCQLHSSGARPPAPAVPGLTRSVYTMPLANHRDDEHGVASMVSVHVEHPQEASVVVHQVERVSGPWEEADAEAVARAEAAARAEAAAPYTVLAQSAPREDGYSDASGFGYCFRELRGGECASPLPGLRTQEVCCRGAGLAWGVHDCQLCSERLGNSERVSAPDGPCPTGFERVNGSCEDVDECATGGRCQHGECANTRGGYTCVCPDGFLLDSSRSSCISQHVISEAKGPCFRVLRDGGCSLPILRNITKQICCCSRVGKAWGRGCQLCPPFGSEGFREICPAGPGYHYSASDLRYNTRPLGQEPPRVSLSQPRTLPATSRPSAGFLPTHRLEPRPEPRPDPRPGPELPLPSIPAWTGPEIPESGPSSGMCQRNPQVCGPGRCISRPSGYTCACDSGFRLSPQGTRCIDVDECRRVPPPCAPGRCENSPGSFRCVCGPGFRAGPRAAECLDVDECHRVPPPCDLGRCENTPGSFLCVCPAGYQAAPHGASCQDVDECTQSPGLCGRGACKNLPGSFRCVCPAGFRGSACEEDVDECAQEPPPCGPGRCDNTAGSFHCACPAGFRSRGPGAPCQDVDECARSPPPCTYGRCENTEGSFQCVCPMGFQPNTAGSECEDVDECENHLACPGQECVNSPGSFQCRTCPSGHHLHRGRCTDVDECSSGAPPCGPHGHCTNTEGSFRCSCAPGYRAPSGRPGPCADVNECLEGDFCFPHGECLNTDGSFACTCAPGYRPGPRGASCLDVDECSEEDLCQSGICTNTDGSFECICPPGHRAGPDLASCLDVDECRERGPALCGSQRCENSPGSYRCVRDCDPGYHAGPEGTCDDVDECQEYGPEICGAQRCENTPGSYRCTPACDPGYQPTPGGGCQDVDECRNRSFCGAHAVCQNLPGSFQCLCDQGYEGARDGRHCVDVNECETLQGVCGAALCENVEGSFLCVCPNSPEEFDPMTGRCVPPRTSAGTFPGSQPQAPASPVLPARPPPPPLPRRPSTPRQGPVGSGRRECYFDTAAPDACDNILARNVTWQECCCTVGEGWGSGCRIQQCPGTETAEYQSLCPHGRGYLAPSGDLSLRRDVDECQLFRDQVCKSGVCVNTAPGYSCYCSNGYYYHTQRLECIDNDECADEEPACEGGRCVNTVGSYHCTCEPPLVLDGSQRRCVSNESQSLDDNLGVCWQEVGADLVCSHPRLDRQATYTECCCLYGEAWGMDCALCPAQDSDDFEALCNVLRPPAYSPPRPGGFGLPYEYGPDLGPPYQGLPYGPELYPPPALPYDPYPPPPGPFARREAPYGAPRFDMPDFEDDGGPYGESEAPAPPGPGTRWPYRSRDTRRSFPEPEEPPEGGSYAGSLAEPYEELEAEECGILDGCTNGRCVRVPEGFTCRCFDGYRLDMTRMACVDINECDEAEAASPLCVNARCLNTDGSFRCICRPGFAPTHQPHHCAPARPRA
UniProt Q02779: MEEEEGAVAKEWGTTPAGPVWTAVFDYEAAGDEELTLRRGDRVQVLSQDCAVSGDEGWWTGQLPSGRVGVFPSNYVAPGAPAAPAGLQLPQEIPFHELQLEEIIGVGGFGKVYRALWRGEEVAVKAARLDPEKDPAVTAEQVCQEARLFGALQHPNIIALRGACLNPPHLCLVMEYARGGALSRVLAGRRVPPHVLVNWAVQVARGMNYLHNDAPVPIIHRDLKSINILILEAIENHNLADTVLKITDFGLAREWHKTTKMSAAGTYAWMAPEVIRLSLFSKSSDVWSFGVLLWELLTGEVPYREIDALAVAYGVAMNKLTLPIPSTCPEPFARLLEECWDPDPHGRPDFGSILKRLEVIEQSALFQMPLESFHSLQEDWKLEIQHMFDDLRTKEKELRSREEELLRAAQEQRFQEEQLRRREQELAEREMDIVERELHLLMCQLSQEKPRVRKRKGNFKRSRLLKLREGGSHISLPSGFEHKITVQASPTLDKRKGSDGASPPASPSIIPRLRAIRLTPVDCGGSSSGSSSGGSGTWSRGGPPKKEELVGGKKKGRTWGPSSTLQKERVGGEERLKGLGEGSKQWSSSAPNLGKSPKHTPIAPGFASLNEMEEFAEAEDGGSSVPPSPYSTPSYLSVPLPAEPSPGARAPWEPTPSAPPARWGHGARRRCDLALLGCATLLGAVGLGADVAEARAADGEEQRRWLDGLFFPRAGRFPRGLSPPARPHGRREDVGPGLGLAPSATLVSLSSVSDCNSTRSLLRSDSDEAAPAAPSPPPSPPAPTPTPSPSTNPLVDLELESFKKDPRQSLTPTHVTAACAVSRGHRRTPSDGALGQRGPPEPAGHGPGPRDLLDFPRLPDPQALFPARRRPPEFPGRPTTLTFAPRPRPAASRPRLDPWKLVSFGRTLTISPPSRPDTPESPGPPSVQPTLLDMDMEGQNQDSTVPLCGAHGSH
UniProt Q13164: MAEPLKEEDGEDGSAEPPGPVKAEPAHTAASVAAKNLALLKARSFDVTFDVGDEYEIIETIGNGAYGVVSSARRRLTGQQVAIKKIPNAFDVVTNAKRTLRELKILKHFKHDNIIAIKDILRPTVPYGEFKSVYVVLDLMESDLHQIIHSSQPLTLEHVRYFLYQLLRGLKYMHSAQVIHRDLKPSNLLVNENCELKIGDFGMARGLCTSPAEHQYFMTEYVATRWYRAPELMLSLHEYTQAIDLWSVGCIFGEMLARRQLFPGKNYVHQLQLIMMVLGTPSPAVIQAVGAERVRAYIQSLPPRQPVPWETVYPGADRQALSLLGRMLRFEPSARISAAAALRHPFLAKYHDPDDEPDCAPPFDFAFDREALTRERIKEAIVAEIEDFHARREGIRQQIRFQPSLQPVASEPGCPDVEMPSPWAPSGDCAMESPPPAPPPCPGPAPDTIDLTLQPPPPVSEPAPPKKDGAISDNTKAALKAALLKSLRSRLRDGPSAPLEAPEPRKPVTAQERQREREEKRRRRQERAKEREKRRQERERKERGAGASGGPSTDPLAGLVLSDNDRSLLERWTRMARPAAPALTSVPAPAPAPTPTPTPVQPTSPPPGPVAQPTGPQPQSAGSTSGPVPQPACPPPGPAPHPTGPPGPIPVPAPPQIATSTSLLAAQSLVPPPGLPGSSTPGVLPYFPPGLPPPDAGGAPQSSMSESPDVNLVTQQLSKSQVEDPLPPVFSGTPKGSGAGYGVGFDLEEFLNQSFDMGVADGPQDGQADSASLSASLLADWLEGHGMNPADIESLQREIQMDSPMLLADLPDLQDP
UniProt Q9BPZ7, whole entry, looked up: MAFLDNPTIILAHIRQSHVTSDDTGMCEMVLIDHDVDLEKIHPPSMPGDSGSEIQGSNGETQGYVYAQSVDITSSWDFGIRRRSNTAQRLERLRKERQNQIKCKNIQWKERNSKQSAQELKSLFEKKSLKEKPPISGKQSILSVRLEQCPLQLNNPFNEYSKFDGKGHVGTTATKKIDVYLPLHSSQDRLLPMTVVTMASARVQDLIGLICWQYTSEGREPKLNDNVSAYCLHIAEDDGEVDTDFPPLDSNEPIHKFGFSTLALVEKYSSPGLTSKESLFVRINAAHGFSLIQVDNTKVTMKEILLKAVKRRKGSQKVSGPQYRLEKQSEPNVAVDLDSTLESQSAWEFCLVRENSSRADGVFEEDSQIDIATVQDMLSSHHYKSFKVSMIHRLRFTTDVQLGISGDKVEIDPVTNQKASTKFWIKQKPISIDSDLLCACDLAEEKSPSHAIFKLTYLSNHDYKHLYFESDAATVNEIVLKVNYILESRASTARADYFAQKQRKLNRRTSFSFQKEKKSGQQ

Key:
Test in all cases: log2 fold change, soluble protein after heating vs DMSO (PISA); higher = thermal stabilisation; K562 cells, 10 uM, 30 min; active = over 0.2 and 3.5 SD of the protein, either way, in both replicates (recomputed)
ibrutinib = compound: C=CC(=O)N1CCC[C@@H](n2nc(-c3ccc(Oc4ccccc4)cc3)c3c(N)ncnc32)C1 [ibrutinib]
Method in brief: (§1)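 Quantification of soluble protein used TMTpro 16plex LC-MS/MS, with channel sums equalised. Samples were the supernatant after 21,000xg for 90 min of pooled aliquots from K562 cells (2×10^6 cells/mL) treated with 10 μM compound for 30 min, heated for 3 min over 48°C-58°C, and extracted in PBS with 0.5% NP-40 at 4°C. Values, from duplicates, describe thermal stability against control samples on a log2 fold-change scale.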

[1] = compound: CC(=O)c1cnc2ccc(-c3cc(Cl)c(O)c(Cl)c3)nc2c1N[C@H]1CC[C@H](CN(C)C)CC1
Method in brief: as §1

ralimetinib = compound: CC(C)(C)Cn1c(N)nc2ccc(-c3[nH]c(C(C)(C)C)nc3-c3ccc(F)cc3)nc21 [ralimetinib]
Method in brief: as §1

[2] = compound: CC(C)(O)CC(=O)NCCn1ccc2ncnc(Nc3ccc(Oc4cccc(C(F)(F)F)c4)c(Cl)c3)c21
Method in brief: as §1

[3] = compound: CC(C)C1=C2N=C(C=C(N2N=C1)NCC3=CC=CC=C3)NCCCCCCN
Method in brief: as §1

[4] = compound: CC(C)C[C@@H](C=O)NC(=O)[C@H](CC(C)C)NC(=O)[C@H](CC(C)C)NC(=O)OCc1ccccc1
Method in brief: as §1

[5] = compound: CC1=C(C=C(C=C1)NC(=O)C2=CC(=CC=C2)C(C)(C)C#N)NC3=CC4=C(C=C3)N=CN(C4=O)C
Method in brief: as §1

[6] = compound: CC1=C(C=C(C=C1)NC(=O)C2=CC(=CC=C2)N(C)C)NC(=O)C3=CC=C(C=C3)O
Method in brief: as §1

[7] = compound: CC1=CC=C(C=C1)SC2=C3C=C(SC3=CN=C2)C(=O)N
Method in brief: as §1

Nexturastat A = compound: CCCCN(Cc1ccc(C(=O)NO)cc1)C(=O)Nc1ccccc1 [Nexturastat A]
Method in brief: as §1

[8] = compound: CCCS(=O)(=O)Nc1ccc(F)c(C(=O)c2c[nH]c3ncc(Cl)cc23)c1F
Method in brief: as §1

[9] = compound: CCCc1cc(C)[nH]c(=O)c1CNC(=O)c1cc(-c2ccnc(N3CCN(C)CC3)c2)cc2c1cnn2C(C)C
Method in brief: as §1

givinostat = compound: CCN(CC)Cc1ccc2cc(COC(=O)Nc3ccc(C(=O)NO)cc3)ccc2c1 [givinostat]
Method in brief: as §1

barasertib = compound: CCN(CCCOc1ccc2c(Nc3cc(CC(=O)Nc4cccc(F)c4)[nH]n3)ncnc2c1)CCOP(=O)(O)O [barasertib]
Method in brief: as §1

IRAK-1-4 Inhibitor I = compound: C1COCCN1CCN2C3=CC=CC=C3N=C2NC(=O)C4=CC(=CC=C4)[N+](=O)[O-] [IRAK-1-4 Inhibitor I]
Method in brief: as §1

pinometostat = compound: CC(C)N(C[C@H]1O[C@@H](n2cnc3c(N)ncnc32)[C@H](O)[C@@H]1O)[C@H]1C[C@@H](CCc2nc3cc(C(C)(C)C)ccc3[nH]2)C1 [pinometostat]
Method in brief: as §1

[10] = compound: CC1=NC(=CC=C1)C2=C(N=C(N2)C(C)(C)C)C3=CC4=NC=CN=C4C=C3
Method in brief: as §1

vemurafenib = compound: CCCS(=O)(=O)Nc1ccc(F)c(C(=O)c2c[nH]c3ncc(-c4ccc(Cl)cc4)cc23)c1F [vemurafenib]
Method in brief: as §1

[11] = compound: CC1=C(C(CC(=O)N1)C2=CC=C(C=C2)C(F)(F)F)C(=O)NC3=C(C=C4C(=C3)C=NN4)F
Method in brief: as §1

[12] = compound: CC1=C(C2=C(C=C1)C(=O)C3=CC=CC=C3N2CCCN)C
Method in brief: as §1

**Q.** Which log2 fold change (ibrutinib) does the source give for MAP4 isoform 5 (UniProt P27816) here?
**A.** inactive: 0.076

**Q.** And the log2 fold change [1]?
**A.** inactive: 0.142

**Q.** What about the log2 fold change (ralimetinib) of the same target?
**A.** inactive: -0.019

**Q.** And the log2 fold change [2]?
**A.** inactive: 0.052

**Q.** What about the log2 fold change [3] of the same target?
**A.** inactive: 0.083

**Q.** What about the log2 fold change [4] of the same target?
**A.** inactive: 0.014

**Q.** And the log2 fold change [5]?
**A.** inactive: 0.013

**Q.** And the log2 fold change [6]?
**A.** inactive: 0.055

**Q.** And the log2 fold change [7]?
**A.** inactive: -0.173

**Q.** And the log2 fold change (Nexturastat A)?
**A.** inactive: 0.105

**Q.** What about the log2 fold change [8] of the same target?
**A.** inactive: -0.01

**Q.** What about the log2 fold change [9] of the same target?
**A.** inactive: -0.161

**Q.** And the log2 fold change (givinostat)?
**A.** inactive: -0.028

**Q.** What about the log2 fold change (barasertib) of the same target?
**A.** inactive: -0.114

**Q.** What does the source list for LRRFIP1 isoform 4 (UniProt Q32MZ4)?
**A.** log2 fold change (IRAK-1-4 Inhibitor I): inactive: -0.06; log2 fold change [1]: inactive: 0.163; log2 fold change [2]: inactive: -0.019; log2 fold change [3]: inactive: 0.031; log2 fold change (pinometostat): inactive: -0.019; log2 fold change [10]: inactive: 0.186; log2 fold change (Nexturastat A): inactive: -0.077; log2 fold change (givinostat): inactive: 0.011

**Q.** LYN isoform 2 (UniProt P07948) was tested. Which log2 fold change (IRAK-1-4 Inhibitor I) did it give?
**A.** inactive: 0.04

**Q.** What about the log2 fold change [1] of the same target?
**A.** inactive: -0.246

**Q.** What about the log2 fold change [2] of the same target?
**A.** inactive: 0.002

**Q.** What about the log2 fold change [3] of the same target?
**A.** inactive: -0.078

**Q.** What about the log2 fold change (pinometostat) of the same target?
**A.** inactive: 0.147

**Q.** What about the log2 fold change [5] of the same target?
**A.** inactive: 0.056

**Q.** What about the log2 fold change [7] of the same target?
**A.** inactive: -0.079

**Q.** And the log2 fold change [10]?
**A.** inactive: -0.079

**Q.** What about the log2 fold change (Nexturastat A) of the same target?
**A.** inactive: 0.376

**Q.** What about the log2 fold change (vemurafenib) of the same target?
**A.** inactive: 0.095

**Q.** And the log2 fold change [8]?
**A.** inactive: -0.296

**Q.** And the log2 fold change (givinostat)?
**A.** inactive: -0.168

**Q.** With MAFG (UniProt O15525) as the target, how does the log2 fold change [1] read?
**A.** inactive: -0.079

**Q.** What about the log2 fold change (ralimetinib) of the same target?
**A.** inactive: 0.044

**Q.** What about the log2 fold change [2] of the same target?
**A.** inactive: 0.109

**Q.** What about the log2 fold change [4] of the same target?
**A.** inactive: 0.247

**Q.** What about the log2 fold change [6] of the same target?
**A.** inactive: 0.09

**Q.** What about the log2 fold change (Nexturastat A) of the same target?
**A.** inactive: 0.285

**Q.** What about the log2 fold change (vemurafenib) of the same target?
**A.** inactive: -0.114

**Q.** With LTBP4 (UniProt Q8N2S1) as the target, how does the log2 fold change (IRAK-1-4 Inhibitor I) read?
**A.** inactive: -0.054

**Q.** And the log2 fold change [1]?
**A.** inactive: 0.025

**Q.** And the log2 fold change [2]?
**A.** inactive: -0.069

**Q.** And the log2 fold change [3]?
**A.** inactive: 0.087

**Q.** And the log2 fold change (pinometostat)?
**A.** inactive: 0.08

**Q.** And the log2 fold change [11]?
**A.** inactive: -0.051

**Q.** What about the log2 fold change [12] of the same target?
**A.** inactive: -0.022

**Q.** What about the log2 fold change [5] of the same target?
**A.** inactive: 0.04

**Q.** What about the log2 fold change [7] of the same target?
**A.** inactive: 0.16

**Q.** And the log2 fold change [10]?
**A.** inactive: 0.041

**Q.** And the log2 fold change (Nexturastat A)?
**A.** inactive: 0.097

**Q.** And the log2 fold change [8]?
**A.** inactive: -0.012

**Q.** And the log2 fold change [9]?
**A.** inactive: -0.059

**Q.** What about the log2 fold change (givinostat) of the same target?
**A.** inactive: 0.132

**Q.** Which results are given for LSM14A, A0A140TA76?
**A.** log2 fold change [1]: inactive: -0.127; log2 fold change [12]: inactive: 0.104; log2 fold change (vemurafenib): inactive: -0.019; log2 fold change [9]: inactive: 0.133

**Q.** MAN2B1 (UniProt M0QYZ1) was tested. Which log2 fold change (IRAK-1-4 Inhibitor I) did it give?
**A.** inactive: 0.156

**Q.** What about the log2 fold change [1] of the same target?
**A.** inactive: -0.131

**Q.** And the log2 fold change [2]?
**A.** inactive: 0.021

**Q.** What about the log2 fold change (pinometostat) of the same target?
**A.** inactive: -0.058

**Q.** And the log2 fold change [7]?
**A.** inactive: -0.254

**Q.** And the log2 fold change [10]?
**A.** inactive: -0.022

**Q.** What about the log2 fold change (Nexturastat A) of the same target?
**A.** inactive: 0.003

**Q.** And the log2 fold change [8]?
**A.** inactive: -0.153

**Q.** With MAP3K10 (UniProt Q02779) as the target, how does the log2 fold change (ibrutinib) read?
**A.** inactive: -0.148

**Q.** What about the log2 fold change [1] of the same target?
**A.** inactive: -0.008

**Q.** And the log2 fold change [12]?
**A.** inactive: 0.113

**Q.** What about the log2 fold change [5] of the same target?
**A.** inactive: -0.311

**Q.** What about the log2 fold change [7] of the same target?
**A.** inactive: -0.132

**Q.** And the log2 fold change (vemurafenib)?
**A.** inactive: -0.116

**Q.** And the log2 fold change [8]?
**A.** inactive: -0.305

**Q.** What about the log2 fold change (barasertib) of the same target?
**A.** inactive: -0.002

**Q.** For LSR isoform 3 (UniProt Q86X29), which log2 fold change [12] is on record?
**A.** inactive: -0.106

**Q.** And the log2 fold change [5]?
**A.** inactive: -0.232

**Q.** What about the log2 fold change [7] of the same target?
**A.** inactive: 0.04

**Q.** What about the log2 fold change [8] of the same target?
**A.** inactive: 0.158

**Q.** And the log2 fold change [9]?
**A.** inactive: -0.081

**Q.** Which log2 fold change (IRAK-1-4 Inhibitor I) does the source give for MAPK7 (UniProt Q13164) here?
**A.** inactive: -0.033

**Q.** And the log2 fold change [1]?
**A.** active: 1.41

**Q.** And the log2 fold change [2]?
**A.** inactive: 0.008

**Q.** And the log2 fold change (pinometostat)?
**A.** inactive: 0.105

**Q.** What about the log2 fold change [10] of the same target?
**A.** inactive: -0.169

**Q.** What about the log2 fold change (Nexturastat A) of the same target?
**A.** inactive: 0.275

**Q.** For MAML2 (UniProt Q8IZL2), which log2 fold change (ralimetinib) is on record?
**A.** inactive: -0.047

**Q.** What about the log2 fold change [3] of the same target?
**A.** inactive: -0.021

**Q.** What about the log2 fold change [4] of the same target?
**A.** inactive: 0.094

**Q.** What about the log2 fold change [6] of the same target?
**A.** inactive: 0.217

**Q.** What about the log2 fold change (givinostat) of the same target?
**A.** inactive: 0.227

**Q.** What does the source list for MAML1 (UniProt Q92585)?
**A.** log2 fold change (IRAK-1-4 Inhibitor I): inactive: 0.117; log2 fold change (ralimetinib): inactive: 0.013; log2 fold change [2]: inactive: 0.02; log2 fold change [3]: inactive: 0.016; log2 fold change [4]: inactive: -0.043; log2 fold change (pinometostat): inactive: -0.133; log2 fold change [5]: inactive: -0.05; log2 fold change [6]: inactive: -0.035; log2 fold change [10]: inactive: 0.199; log2 fold change (Nexturastat A): inactive: 0.039; log2 fold change (vemurafenib): inactive: 0.038; log2 fold change (givinostat): inactive: 0.299

**Q.** MAPKAP1 (UniProt Q9BPZ7) was tested. Which log2 fold change (ralimetinib) did it give?
**A.** inactive: 0.035

**Q.** And the log2 fold change [2]?
**A.** inactive: -0.313

**Q.** And the log2 fold change [4]?
**A.** inactive: -0.052

**Q.** And the log2 fold change [12]?
**A.** inactive: 0.248

**Q.** What about the log2 fold change [6] of the same target?
**A.** inactive: 0.071

**Q.** And the log2 fold change (Nexturastat A)?
**A.** inactive: 0.105
